# From patent US20130203649A1, “INHIBITORS OF TLR SIGNALING BY TARGETING TIR DOMAIN INTERFACES” (UNIVERSITY OF MARYLAND, BALTIMORE, priority 2012, published 2013)
# “Also recorded” adds a separate entry of the source. Part of at least one peptide drawing is inferred or uncertain, most often the ends. No end group written: not given here.
# What was measured:
# [1] = tested on: TLR4/MyD88; experiment: LPS-induced TLR4/MyD88 coimmunoprecipitation in mouse peritoneal macrophages; assay type: cell-based; settings: 20 μM peptide 30 min before LPS 100 ng/ml
# Protocol: FIG. 9. TM4, TM6, and TR6 block adapter recruitment to TLR4. (A) A total of 6×10^5 HEK293T cells was transfected with 1 μg pcDNA3.1-mTLR4-Cer and pEF-BOS-mTRAM-HA. Twenty-four hours posttransfection, the cells were treated with 20 μM of each peptide for 1 h. Cell lysates were immunoprecipitated with anti-GFP Ab and blotted with anti-HA-HRP. (B) A total of 2×10^6 mouse peritoneal macrophages was pretreated with 20 μM of each peptide for 30 min prior to stimulation with 100 ng/ml LPS. Cell extracts were obtained 30 min after LPS treatment, immunoprecipitated with goat anti-TLR4 Ab, and blotted with rabbit anti-MyD88 or anti-TLR4 Ab. Data are representative of three independent experiments.
# HEK293T cells were transfected with indicated plasmids using Superfect Transfection Reagent (Qiagen). […] Protein was quantified using Bio-Rad protein quantification kit. Equal amount of protein was loaded and analyzed by 10% SDS-PAGE and immunoblotting. The cell extracts containing equal amount of protein were incubated with 1 μg Ab for 2 h, followed by 4-h incubation with 25 μl protein G agarose beads (Roche); the beads were then washed four times with lysis buffer, boiled in […] sample loading buffer, and analyzed by immunoblotting. […]
# [2] = tested on: C57BL/6J mice; experiment: Survival after lethal LPS challenge in C57BL/6J mice; assay type: in vivo, mouse; settings: LPS 17.5 μg/g i.p.; peptide 10 nmol/g i.p. 1 h before
# Protocol: FIG. 10. […] (A-E) C57BL/6J mice were injected i.p. with purified Escherichia coli K235 LPS (1 μg/g) or PBS. Peptides (10 nmol/g of animal weight) were injected i.p. (A, B, D, E) or i.v. (C) 1 h before (A, B, and C) or 30 min after (D, E) i.p. injection of LPS. Data in panels A and D show plasma IL-6 and TNF-α levels measured 2 h after LPS challenge. Peptide TM8/9 was used as a non-inhibitory control peptide. Data represent the means±s.e.m. for 6-12 blood samples obtained in at least three independent experiments. *p<0.01. (F, G) C57BL/6J mice were challenged i.p. with a lethal LPS dose (17.5 μg/g). Peptides (10 nmol/g) were injected i.p. 1 h before LPS challenge. […] The statistical significance of changes in mortality and survival time was determined by the Mantel Cox log-rank test using GraphPad Prism software (Version 5.04). *p<0.01.
# Eight-week-old C57BL/6J mice were injected with 1 or 17.5 μg/g animal weight of E. coli K235 LPS i.p. Peptides reconstituted in PBS were administered i.p. or i.v. Control groups received equivalent volume of solvent (PBS). The blood samples were collected 1, 2, 4, and 8 h, or 2, 8, and 24 h after LPS challenge. The plasma samples were obtained and kept frozen until TNF-α and IL-6 were measured by ELISA. Survival of animals was monitored every 6-16 h after LPS challenge. All animal experiments were carried out with institutional approval. […]
Sequence,LPS-induced TLR4/MyD88 association [1],Survival after lethal LPS challenge [2]
RQIKIWFQNRRMKWKKENFLRDTWCNFQFY [TM6],efficiently prevented,3 of 13 animals died and protect
RQIKIWFQNRRMKWKKIVFAEMPCGRLHLQ [TM4],efficiently prevented,rescued all animals; also recorded: protect
